Residue numbers refer to the chain shown, from its start. No constants are given. Whether binding was seen depends on the method and setting. In cells and extracts the contact can be indirect. A yes stands for co-enrichment or nearness to the bait. Other partners may have been found. For some of these results: Where a sequence is shown, tags or fusion partners need not be part of it.
B1: non-tagged septin-5 (protein, UniProt Q99719 1-369)
chain: MSTGLRYKSKLATPEDKQDIDKQYVGFATLPNQVHRKSVKKGFDFTLMVAGESGLGKSTLVHSLFLTDLYKDRKLLSAEERISQTVEILKHTVDIEEKGVKLKLTIVDTPGFGDAVNNTECWKPITDYVDQQFEQYFRDESGLNRKNIQDNRVHCCLYFISPFGHGLRPVDVGFMKALHEKVNIVPLIAKADCLVPSEIRKLKERIREEIDKFGIHVYQFPECDSDEDEDFKQQDRELKESAPFAVIGSNTVVEAKGQRVRGRLYPWGIVEVENQAHCDFVKLRNMLIRTHMHDLKDVTCDVHYENYRAHCIQQMTSKLTQDSRMESPIPILPLPTPDAETEKLIRMKDEELRRMQEMLQRMKQQMQDQ
B2: non-tagged septin-6 (protein, UniProt Q14141 1-434)
chain: MAATDIARQVGEGCRTVPLAGHVGFDSLPDQLVNKSVSQGFCFNILCVGETGLGKSTLMDTLFNTKFEGEPATHTQPGVQLQSNTYDLQESNVRLKLTIVSTVGFGDQINKEDSYKPIVEFIDAQFEAYLQEELKIRRVLHTYHDSRIHVCLYFIAPTGHSLKSLDLVTMKKLDSKVNIIPIIAKADAISKSELTKFKIKITSELVSNGVQIYQFPTDDESVAEINGTMNAHLPFAVIGSTEELKIGNKMMRARQYPWGTVQVENEAHCDFVKLREMLIRVNMEDLREQTHTRHYELYRRCKLEEMGFKDTDPDSKPFSLQETYEAKRNEFLGELQKKEEEMRQMFVQRVKEKEAELKEAEKELHEKFDRLKKLHQDEKKKLEDKKKSLDDEVNAFKQRKTAAELLQSQGSQAGGSQTLKRDKEKKNNPWLCTE
B3: non-tagged septin-7 (protein, UniProt Q16181 1-437)
chain: MSVSARSAAAEERSVNSSTMVAQQKNLEGYVGFANLPNQVYRKSVKRGFEFTLMVVGESGLGKSTLINSLFLTDLYSPEYPGPSHRIKKTVQVEQSKVLIKEGGVQLLLTIVDTPGFGDAVDNSNCWQPVIDYIDSKFEDYLNAESRVNRRQMPDNRVQCCLYFIAPSGHGLKPLDIEFMKRLHEKVNIIPLIAKADTLTPEECQQFKKQIMKEIQEHKIKIYEFPETDDEEENKLVKKIKDRLPLAVVGSNTIIEVNGKRVRGRQYPWGVAEVENGEHCDFTILRNMLIRTHMQDLKDVTNNVHYENYRSRKLAAVTYNGVDNNKNKGQLTKSPLAQMEEERREHVAKMKKMEMEMEQVFEMKVKEKVQKLKDSEAELQRRHEQMKKNLEAQHKELEEKRRQFEDEKANWEAQQRILEQQNSSRTLEKNKKKGKIF
B4: non-tagged septin-11 (protein, UniProt Q9NVA2 1-429)
chain: MAVAVGRPSNEELRNLSLSGHVGFDSLPDQLVNKSTSQGFCFNILCVGETGIGKSTLMDTLFNTKFESDPATHNEPGVRLKARSYELQESNVRLKLTIVDTVGFGDQINKDDSYKPIVEYIDAQFEAYLQEELKIKRSLFNYHDTRIHACLYFIAPTGHSLKSLDLVTMKKLDSKVNIIPIIAKADTIAKNELHKFKSKIMSELVSNGVQIYQFPTDEETVAEINATMSVHLPFAVVGSTEEVKIGNKMAKARQYPWGVVQVENENHCDFVKLREMLIRVNMEDLREQTHTRHYELYRRCKLEEMGFKDTDPDSKPFSLQETYEAKRNEFLGELQKKEEEMRQMFVMRVKEKEAELKEAEKELHEKFDLLKRTHQEEKKKVEDKKKELEEEVNNFQKKKAAAQLLQSQAQQSGAQQTKKDKDKKNASFT
B5: septin-5 (rat cerebellum) (protein, UniProt Q9JJM9 1-369)
chain: B1 chain with S83N, T119F, E204D, A339S, R361K, Q365R
B6: septin-7 (rat cerebellum) (protein, UniProt Q9WVC0 1-436)
chain: MSVSARSAAAEERSVNCSTMAQPKNLEGYVGFANLPNQVYRKSVKRGFEFTLMVVGESGLGKSTLINSLFLTDLYSPEYPGPSHRIKKTVQVEQSKVLIKEGGVQLLLTIVDTPGFGDAVDNSNCWQPVIDYIDSKFEDYLNAESRVNRRQMPDNRVQCCLYFIAPSGHGLKPLDIEFMKRLHEKVNIIPLIAKADTLTPEECQQFKKQIMKEIQGHKIKIYEFPETDDEEENKLVKKIKDRLPLAVVGSNTIIEVNGKRVRGRQYPWGVAEVENGEHCDFTILRNMLIRTHMQDLKDVTNNVHYENYRSRKLAAVTYNGVDNNKNKGQLTKSPLAQMEEERREHVAKMKKMEMEMEQVFEMKVKEKVQKLKDSEAELQRRHEQMKKNLEAQHKELEEKRRQFEEEKANWEAQQRILEQQNSSRTLEKNKKKGKIF
B7: septin-11 (rat cerebellum) (protein, UniProt B3GNI6 1-431)
chain: MAVAVGRPSNEELRNLSLSGHVGFDSLPDQLVNKSTSQGFCFNILCVGETGIGKSTLMDTLFNTKFESDPATHNEPGVRLKARSYELQESNVRLKLTIVDTVGFGDQINKDDSYKPIVEYIDAQFEAYLQEELKIKRSLFNYHDTRIHACLYFIAPTGHSLKSLDLVTMKKLDSKVNIIPIIAKADTIAKNELHKFKSKIMSELVSNGVQIYQFPTDEETVAEINATMSVHLPFAVVGSTEEVKIGNKMAKARQYPWGVVQVENENHCDFVKLREMLIRVNMEDLREQTHTRHYELYRRCKLEEMGFKDTDPDSKPFSLQETYEAKRNEFLGELQKKEEEMRQMFVMRVKEKEAELKEAEKELHEKFDLLKRTHQEEKKKVEDKKKELEEEVSNFQKKKAAAQLLQSQAQQSGAQQTKKDKDKKNPWLCTE

Amino acid sequences for entries named in this document (tags omitted).
UniProt Q9UH03: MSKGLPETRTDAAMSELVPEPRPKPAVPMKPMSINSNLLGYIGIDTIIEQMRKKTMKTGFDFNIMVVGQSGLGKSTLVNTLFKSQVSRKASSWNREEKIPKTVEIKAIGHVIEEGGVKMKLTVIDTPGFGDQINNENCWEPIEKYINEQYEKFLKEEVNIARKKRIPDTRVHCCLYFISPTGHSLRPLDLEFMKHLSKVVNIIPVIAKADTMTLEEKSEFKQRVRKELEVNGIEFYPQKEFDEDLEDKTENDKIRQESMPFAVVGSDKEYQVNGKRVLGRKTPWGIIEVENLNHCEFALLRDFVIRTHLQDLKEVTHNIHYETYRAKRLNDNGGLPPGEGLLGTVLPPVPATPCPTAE
UniProt Q9WU34: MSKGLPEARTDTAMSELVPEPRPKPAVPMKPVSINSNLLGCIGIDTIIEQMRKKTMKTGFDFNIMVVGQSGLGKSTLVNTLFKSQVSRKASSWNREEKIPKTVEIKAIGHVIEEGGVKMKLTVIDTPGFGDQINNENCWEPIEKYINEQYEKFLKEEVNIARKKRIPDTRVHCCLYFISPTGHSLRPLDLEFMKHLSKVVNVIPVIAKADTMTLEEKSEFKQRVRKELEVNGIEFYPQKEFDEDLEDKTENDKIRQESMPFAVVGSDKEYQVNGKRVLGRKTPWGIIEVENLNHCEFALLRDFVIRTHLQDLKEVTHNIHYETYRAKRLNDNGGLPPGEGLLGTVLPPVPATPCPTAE

What follows are binders tested against septin-3-His (human) (UniProt Q9UH03) (assay: affinity purification with mass spectrometry; septin-3-His co-expressed with non-tagged septin-5, -6, -7 and -11 in HEK293 cells; septin-3-His enriched by immobilized metal ion affinity chromatography combined with anion exchange chromatography; fraction analysed by ESI-TOF mass spectrometry and SDS-PAGE).

Binder | binding
B1 | binds
B2 | binds
B3 | binds
B4 | binds

The binders below were run against septin-3 (rat cerebellum) (rat (endogenous in rat cerebellum)) (UniProt Q9WU34) (assay: affinity purification with mass spectrometry; rat cerebellum lysate (Tris-HCl pH 7.4, 150 mmol/L NaCl, 0.5% deoxycholate, 1% Triton X-100) incubated overnight at 4 °C with anti-septin-3-positive patient sera, captured on Protein G Dynabeads; SDS-PAGE, bands identified by mass spectrometry).

Binder | binding
B5 | binds
B6 | binds
B7 | binds
